Data: PubChem BioAssay AID555 (SRMLSC, 2006)
The list shows a part of the results.

These compounds were tested on mevalonate kinase [Streptococcus pneumoniae D39] (assay: pneumococcal mevalonate kinase activity blockers – biochemical, PK/LDH-coupled NADH absorbance, primary screen (AID 555)). Conditions: purified MK, PK/LDH-coupled NADH absorbance 340 nm; measured here: pilot screen replicates; at 10 µM; stronger effect = higher value.

SMILES	inhibition [%]
CN(C)CCOC(=O)C(O)(c1ccccc1)C1CCCCC1 (stereo not given)	0.5
O=P(Nc1nccs1)(c1ccccc1)c1ccccc1	0
CP(=O)(Nc1ccc2c(c1)OCCO2)Oc1ccccc1 (stereo not given)	6
CP(=O)(Nc1ccccn1)Oc1ccccc1 (stereo not given)	0
CP(=S)(Nn1cnnc1)Oc1ccccc1 (stereo not given)	1
O=C(COc1ccccc1)OC1CN2CCC1CC2 (stereo not given)	3
COP1(=S)c2c(C)nn(CCC#N)c2N=C(c2ccc(F)cc2)N1C (stereo not given)	0
Cc1nn(-c2ccccc2)c2c1P(=O)(N1CCOCC1)N(C)C(c1ccccc1)=N2 (stereo not given)	2
CCOP1(=S)c2c(C)nn(CCC#N)c2N=C(c2ccccc2F)N1C (stereo not given)	0
Cc1ccc(C)c(NP(C)(=O)Oc2ccccc2)c1 (stereo not given)	0
